Results reported in paper PMC3390373.
These are yes or no findings as the source states them, for the method shown. In cells and extracts the contact can be indirect. Some entries that bind do so weakly or less than the wild type.

Sequences of proteins named here, by UniProt entry; tags and fusion partners are left off. A change or cut given only in a name is not applied to a line headed by its entry. A line that says so, or that is headed by a name, gives the form on record, which may keep a tag or linker. Residues count along the entry.
UniProt P32905: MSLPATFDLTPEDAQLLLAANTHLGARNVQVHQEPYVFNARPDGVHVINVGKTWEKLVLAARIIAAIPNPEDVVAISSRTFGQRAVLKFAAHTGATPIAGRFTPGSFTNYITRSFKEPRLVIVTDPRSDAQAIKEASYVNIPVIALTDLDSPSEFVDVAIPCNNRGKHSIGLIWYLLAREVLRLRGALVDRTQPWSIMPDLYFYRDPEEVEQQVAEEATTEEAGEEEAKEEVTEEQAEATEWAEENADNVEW
FLAG-tagged C-terminally truncated RPS0A (residues 1–197): residues 1-197 of P32905
UniProt P38431: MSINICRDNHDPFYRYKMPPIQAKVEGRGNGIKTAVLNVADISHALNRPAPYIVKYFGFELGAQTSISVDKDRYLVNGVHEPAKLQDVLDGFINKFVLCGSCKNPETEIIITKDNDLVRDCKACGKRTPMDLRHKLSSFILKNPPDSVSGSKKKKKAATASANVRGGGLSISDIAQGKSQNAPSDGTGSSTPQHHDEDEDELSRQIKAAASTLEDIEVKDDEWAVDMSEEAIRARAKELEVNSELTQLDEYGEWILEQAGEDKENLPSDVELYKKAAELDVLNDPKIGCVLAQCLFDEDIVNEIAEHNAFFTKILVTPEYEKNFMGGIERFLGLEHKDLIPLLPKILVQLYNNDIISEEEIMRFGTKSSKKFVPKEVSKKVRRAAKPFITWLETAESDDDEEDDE

B1: RACK1/ASC1/RPS33 (protein, UniProt P38011 1-319)
chain: MASNEVLVLRGTLEGHNGWVTSLATSAGQPNLLLSASRDKTLISWKLTGDDQKFGVPVRSFKGHSHIVQDCTLTADGAYALSASWDKTLRLWDVATGETYQRFVGHKSDVMSVDIDKKASMIISGSRDKTIKVWTIKGQCLATLLGHNDWVSQVRVVPNEKADDDSVTIISAGNDKMVKAWNLNQFQIEADFIGHNSNINTLTASPDGTLIASAGKDGEIMLWNLAAKKAMYTLSAQDEVFSLAFSPNRYWLAAATATGIKVFSLDPQYLVDDLRPEFAGYSKAAEPHAVSLAWSADGQTLFAGYTDNVIRVWQVMTAN

What was measured:
[1] = biological target: FLAG-tagged full length RPS0A (S. cerevisiae) (UniProt P32905); test: co-IP; WCE of H2880 wt cells overexpressing wt or C-terminally truncated RPS0A-FLAG; anti-FLAG M2 affinity matrix, 60 min, 4°C, buffer A200T (200 mM KCl, 20 mM Tris pH 8, 5 mM Mg acetate, 1 mM DTT, 0.2% Triton X-100); whole 40S subunits with their associated eIFs are recovered through the tagged RPS0A; Western blot, normalised to ASC1 (Figure 5B)
[2] = biological target: FLAG-tagged C-terminally truncated RPS0A (residues 1–197) (S. cerevisiae) (UniProt P32905); test: as above

Row | Molecule | binding [1] | binding [2]
1 | eIF5 (from UniProt P38431 1-405) | binds | –
2 | B1 | binds | binds
